# Assay results: PubChem BioAssay AID540276 (National Center for Advancing Translational Sciences (NCATS), 2011)
# Out of some 300,000 compounds screened, about 5,400 (1.8%) were called active. The shares of active, inactive and inconclusive entries below differ from those in the screen. Calls follow the shape of the full dose curve; tested in HEK293 cells. Potencies beside an inconclusive call are fits to weak or partial responses and may not hold up.
# Experiment: qHTS for inhibitors of binding or entry into cells for Marburg Virus
# Conditions: Marburg virus pseudotyped entry inhibition, cell reporter; activity change, negative = inhibition: at 37.8 µM (top of the series) unless noted
# % is scaled to controls: 0 for no effect and ±100 for the full control effect; potency is read from the fitted curve at half-maximal effect.
SMILES,Potency,"activity change, negative = inhibition"
Cc1cc2ncn(-c3ncnc4sc5c(c34)CCCC5)c2cc1C,"inconclusive: 1.41 µM [activator, partial curve]",
CCOc1ccc(NC(=O)CCC(=O)NNC(=O)c2cccc([N+](=O)[O-])c2)cc1,"inconclusive: 7.94 µM [activator, partial curve, poor fit]",
CC1(C)Cc2nc3sc4c(=O)n(CC(=O)NCc5ccccc5)cnc4c3cc2CO1,inactive,
CC(=O)c1ccc(NC(=O)c2ccc3c(Cl)c4c(nc3c2)CCCC4)cc1,inactive,
CN(CC(=O)Nc1cccc(S(=O)(=O)N(C)C)c1)Cc1ccccc1,inactive,
Cc1cccc(N2CCN(C(=O)c3ccccc3NC(=O)C3CCCCC3C(=O)O)CC2)c1 (stereo not drawn),"inconclusive: 2.82 µM [inhibitor, single point]",
CCc1cc2c(cc3c(=O)n(CC(=O)N4CCN(c5ccccn5)CC4)nc(CC)n32)s1,"inconclusive: 32.6 µM [inhibitor, single point]",
CCN(CC)S(=O)(=O)c1ccc2c(c1)nc(SCC(=O)N1CCOCC1)n2-c1ccccc1OC,"inconclusive: 9.2 µM [inhibitor, partial curve, poor fit]",
CCc1cccc(NC(=O)NC2CCCCC2)c1,"inconclusive: 29.1 µM [activator, single point]",
COc1cccc(C(=O)Nc2ncc3c(n2)CC(C)CC3=O)c1 (stereo not drawn),inactive,
CCC(C)(C)NC(=O)CN(C(=O)CNS(=O)(=O)c1ccc(C)cc1)c1ccc2c(c1)OCCO2,inactive,
CCOc1ccccc1N1CCN(C(=O)c2ccccc2)CC1,inactive,
CC(CC(=O)N1CCN(C(=O)c2ccccc2)CC1)c1ccccc1 (stereo not drawn),inactive,
OC(CNCc1ccccc1F)COc1cccc2ccccc12 (stereo not drawn),"inconclusive: 10 µM [inhibitor, partial curve, poor fit]",
CCc1nnc(NS(=O)(=O)c2ccc(N=Cc3c(C)[nH]n(-c4ccc(C)c(C)c4)c3=O)cc2)s1,inactive,
O=C(COC(=O)c1ccc(S(=O)(=O)N2CCCC2)cc1)Nc1ccccc1,inactive,
COc1ccc(C(=O)N2CCN(c3cccc(C)c3C)CC2)cc1S(=O)(=O)NC1CC1,"inconclusive: 35.5 µM [inhibitor, single point]",
CC(Sc1ncccn1)C(=O)NC1CCCC1 (stereo not drawn),"inconclusive: 8.91 µM [activator, partial curve]",
O=C(NCC1CCCO1)c1ccc2c(=O)n(Cc3ccco3)c(SCC(=O)N3CCCC3)nc2c1 (stereo not drawn),inactive,
Cc1cc(C)cc(C(=O)NN2CCOCC2)c1,"inconclusive: 31.6 µM [activator, single point]",
CCOc1ccccc1N1CCN(S(=O)(=O)c2ccc(C3CCCCC3)cc2)CC1,"inconclusive: 35.5 µM [activator, single point]",
CC(C)NC(=O)C1(O)c2ccccc2NC(=O)N1c1ccc(Cl)c(Cl)c1 (stereo not drawn),"inconclusive: 0.73 µM [activator, full curve, poor fit]",
CC(=O)NC(=S)Nc1ccc(NC(=O)c2cccs2)cc1,"inconclusive: 0.1 µM [activator, full curve, poor fit]",

SMILES,Potency,"activity change, negative = inhibition"
Cc1oc(/N=C/c2ccc(O)cc2O)c(C#N)c1C,inactive,
COc1cccc(NC(=O)Cn2c(=O)n(CCCCC(=O)NCc3ccccc3Cl)c(=O)c3ccccc32)c1,"inconclusive: 35.5 µM [inhibitor, single point]",
O=S(=O)(Cc1ccccc1)NC1c2ccccc2Oc2ccccc21,"inconclusive: 7.94 µM [inhibitor, partial curve, poor fit]",
C[C@]12CC[C@H](N)CC1=CCC1C2CC[C@@]2(C)C1CC[C@@H]2O (stereo partly drawn),"inconclusive: 35.5 µM [inhibitor, single point]",
Cc1ccc(OCCn2ccc(=O)[nH]c2=O)cc1C,"inconclusive: 1.64 µM [inhibitor, partial curve, poor fit]",
CC(O)CNC(=O)c1ccc(-c2nn(C)c(=O)c3ccccc23)cc1 (stereo not drawn),inactive,
COc1ccccc1CNC(=O)c1ccc2c(c1)N(Cc1c(F)cccc1Cl)C(=O)CS2,"inconclusive: 35.5 µM [inhibitor, single point]",
CC1c2[nH]c3ccccc3c2CCN1S(C)(=O)=O (stereo not drawn),inactive,
CCOc1cc(C2NN=C(c3ccccc3)S2)ccc1OCc1ccccc1Cl (stereo not drawn),"inconclusive: 29.1 µM [inhibitor, single point]",
CC(C)CC(=O)N/C(N)=N/c1nc2ccccc2s1,"inconclusive: 10 µM [inhibitor, single point]",
COc1ccc2oc(C(=O)N(C)Cc3ccc(OC(F)F)cc3)c(C)c2c1,"inconclusive: 3.55 µM [activator, single point]",
CC1CC(C)CN(C(=O)COC(=O)C2CCN(S(=O)(=O)c3ccc4c(c3)OCCO4)CC2)C1 (stereo not drawn),"inconclusive: 2 µM [inhibitor, partial curve, poor fit]",
Cc1onc(-c2ccccc2)c1C(=O)Nc1nc2c(s1)CCCC2,inactive,
c1ccc2c(c1)CCCC2C1=NCCN1 (stereo not drawn),"inconclusive: 5.62 µM [inhibitor, single point]",
COc1ccc(C2=NN(C(=O)CN3CCCC3)C(c3ccc(OC)cc3)C2)cc1 (stereo not drawn),"inconclusive: 35.5 µM [inhibitor, single point]",
Cc1ccccc1CSCc1nc(N)nc(Nc2ccccc2C)n1,"inconclusive: 35.5 µM [inhibitor, single point]",
COCCn1c(C)cc(C(=O)COC(=O)c2ccc3ncsc3c2)c1C,"inconclusive: 6.31 µM [activator, full curve, poor fit]",
Cc1nn(-c2cccc(C(F)(F)F)c2)c(Cl)c1/C=N/Nc1cccc(C(=O)O)c1,"inconclusive: 25.1 µM [inhibitor, partial curve, poor fit]",
COC(=O)/C(=C/N(C)C)C(=O)N1CCN(c2ccc(Cl)c(Cl)c2)CC1,"inconclusive: 12.6 µM [inhibitor, single point]",
CCOC(=O)c1[nH]c(C)c(/C(O)=C2\C(=O)C(=O)N(CCN3CCOCC3)C2c2cccs2)c1C (stereo not drawn),"inconclusive: 0.73 µM [inhibitor, partial curve, poor fit]",
COc1cccc(NC(=O)Cn2cc(C(=O)c3ccco3)c3ccccc32)c1,"inconclusive: 35.5 µM [inhibitor, single point]",
CC1(CC(=O)N/N=C/c2cc3c(cc2Br)OCO3)OCCO1,"inconclusive: 3.16 µM [activator, partial curve]",
Cc1ccc(C)c(NC(=O)C2CCN(c3cc(C)nc4c(-c5ccc(Cl)cc5)c(C)nn34)CC2)c1,inactive,

SMILES,Potency,"activity change, negative = inhibition"
CCN(CC)Cc1c(NC(=O)c2ccccc2)sc(C)c1C,"inconclusive: 5.62 µM [activator, single point]",
Cc1ccc(NC(=O)CN(C)C(=O)Cn2ncc(Cl)c(Cl)c2=O)cc1,active: 5.01 µM,
COc1cc(/C=N\NC(=O)c2cccc(Cl)c2)ccc1Oc1ccc([N+](=O)[O-])cn1,"inconclusive: 35.5 µM [inhibitor, single point]",
Nc1ccc(C23CC4CC(CC(CO)(C4)C2)C3)cc1,inactive,
CC(=O)Nc1ccccc1C(=O)OCC(=O)c1ccccc1Cl,inactive,
Cc1nc(N)sc1C(=O)N/N=C/c1c[nH]c2ccccc12,active: 2.91 µM,
O=C(OCc1nnc(-c2ccccc2)o1)C1CCN(S(=O)(=O)c2cccs2)CC1,inactive,
COC(=O)c1ccc(Nc2c([N+](=O)[O-])c(=O)oc3ccccc23)cc1,"inconclusive: 7.94 µM [inhibitor, partial curve]",
O=C(CCCc1c[nH]c2ccccc12)Nc1ccc2ccccc2c1,inactive,
O=C(NC(=S)N1CCCc2ccccc21)c1ccc([N+](=O)[O-])cc1,"inconclusive: 16.4 µM [activator, partial curve, poor fit]",
CCOC(=O)c1c(C)n(C)c2c(C)cc(O)c(OC(C)=O)c12,"inconclusive: 1.41 µM [activator, partial curve, poor fit]",
COc1ccccc1NS(=O)(=O)c1ccc(O)c(C(N)=O)c1,"inconclusive: 2.82 µM [activator, single point]",
NC(=O)c1sc2nccc(Nc3ccccc3)c2c1N,"inconclusive: 14.6 µM [inhibitor, partial curve, poor fit]",
CCN1/C(=C/C=C/c2oc3ccc4ccccc4c3[n+]2CC)Oc2ccc3ccccc3c21,"inconclusive: 3.98 µM [inhibitor, full curve, poor fit]",
Cc1ccc(S(=O)(=O)N2CCOCC2)cc1C(=O)OCC(=O)N1CCCCC1,,inconclusive: 5.4% [activator]
CC(C)N1C(=O)S/C(=C/c2ccccc2OCc2ccc(C(=O)O)cc2)C1=O,inactive,
O=C(c1ccc2ncsc2c1)N1CCN(c2cccc(C(F)(F)F)c2)CC1,"inconclusive: 6.31 µM [inhibitor, full curve]",
COc1ccccc1CN1CC(C(=O)NCc2cc(F)ccc2C)CCC1=O (stereo not drawn),"inconclusive: 2.82 µM [activator, single point]",
Cc1ccc(C)c(OCc2nc3ccccc3[nH]2)c1,"inconclusive: 4.47 µM [activator, partial curve, poor fit]",
CCOC(=O)N1CCN(C(=O)COC(=O)COc2c(C)cc(C)cc2C)CC1,"inconclusive: 0.447 µM [activator, full curve, poor fit]",
N#C/C(=C(/O)CN1CCCCC1)c1nc(-c2ccc(Cl)cc2)cs1,inactive,
O=C(NNc1cccc(Cl)n1)c1ccc(Cl)cc1Cl,"inconclusive: 20.6 µM [activator, single point]",
